Experimental data from patent publication US20100130736A1, “METHODS OF CREATING AN INDEX” (priority 2008, published 2010).
For at least one compound, name, drawing or mass did not settle the structure.

Test system: A549 cells
Test: Epic DMR agonist mode (primary profile, target panning) in A549 cells
Type: cell-based, human
Settings: FIG. 8: 40 μM pinacidil, 250 μg/ml poly (I:C), 8 μM PMA, 16 μM forskolin
From the text: Epic® wavelength interrogation system (Corning Inc., Corning, N.Y.) was used for whole cell sensing. This system consists of a temperature-control unit, an optical detection unit, and an on-board liquid handling unit with robotics. The detection unit is centered on integrated fiber optics, and enables kinetic measures of cellular responses with a time interval of ±15 sec.
For biosensor cellular assays, molecule solutions were made by diluting the stored concentrated solutions with the HBSS (1× Hanks balanced salt solution, plus 20 mM Hepes, pH 7.1), and transferred into a 384 well polypropylene molecule storage plate to prepare a molecule source plate. Both molecule and marker source plates were made separately when a two-step assay was performed. In parallel, the cells were washed twice with the HBSS and maintained in 30 μl of the HBSS to prepare a cell assay plate. Both the cell assay plate and the molecule and marker source plate(s) were then incubated in the hotel of the reader system. After ˜1 hr of incubation the baseline wavelengths of all biosensors in the cell assay microplate were recorded and normalized to zero. […]
A DMR index was generated for four ligand molecules. […] Next, one or more specific DMR parameters were chosen as a readout for plotting the DMR index of the molecule. […]

C=C[C@@]1(C)CC(=O)[C@]2(O)[C@@]3(C)[C@@H](O)CCC(C)(C)[C@@H]3[C@H](O)[C@H](OC(C)=O)[C@@]2(C)O1 [forskolin]
ligand-induced DMR signal (second ligand panel): robust DMR signals
